Test results as given in EP4714974A1.

Target: cynomolgus monkey GPRC5D (cynomolgus monkey)
Assay: flow cytometry on cynomolgus monkey GPRC5D-CHOK1 cells

- binding: binds
B1: 18CH-16 (chimeric mouse hybridoma-derived anti-GPRC5D antibody) (antibody, V domains shown)
VH: EVQLQQSGPELVKPGASVKMSCKASGYTFTSYIIHWVKQKPGQGLEWIGYINPYNDGTKYNEKFKGKATLTSDRSSSTAYMEVSSLTSEDSAVYYCARGGIRAFMNYWGQGTSVTVSS
VL: DIVMTQSHKFMSTSVGDRVSITCKASQDVGTAVAWYQQKPGQSPKLLIYWASTRHTGVPDRFTGSGSGTDFTLSISNVQSEDLADYFCQHYISWTFGGGTNLEIK

These are yes or no findings as the source states them, for the method shown. Binding calls can cover weak binding; strength is not graded here.
